No constants are given. Whether binding was seen depends on the method and setting. In cells and extracts the contact can be indirect. Some binding calls cover weakened binding; strength is not graded here.

The chains behind the UniProt entries cited, without tags or fusion partners.
UniProt Q9CW03: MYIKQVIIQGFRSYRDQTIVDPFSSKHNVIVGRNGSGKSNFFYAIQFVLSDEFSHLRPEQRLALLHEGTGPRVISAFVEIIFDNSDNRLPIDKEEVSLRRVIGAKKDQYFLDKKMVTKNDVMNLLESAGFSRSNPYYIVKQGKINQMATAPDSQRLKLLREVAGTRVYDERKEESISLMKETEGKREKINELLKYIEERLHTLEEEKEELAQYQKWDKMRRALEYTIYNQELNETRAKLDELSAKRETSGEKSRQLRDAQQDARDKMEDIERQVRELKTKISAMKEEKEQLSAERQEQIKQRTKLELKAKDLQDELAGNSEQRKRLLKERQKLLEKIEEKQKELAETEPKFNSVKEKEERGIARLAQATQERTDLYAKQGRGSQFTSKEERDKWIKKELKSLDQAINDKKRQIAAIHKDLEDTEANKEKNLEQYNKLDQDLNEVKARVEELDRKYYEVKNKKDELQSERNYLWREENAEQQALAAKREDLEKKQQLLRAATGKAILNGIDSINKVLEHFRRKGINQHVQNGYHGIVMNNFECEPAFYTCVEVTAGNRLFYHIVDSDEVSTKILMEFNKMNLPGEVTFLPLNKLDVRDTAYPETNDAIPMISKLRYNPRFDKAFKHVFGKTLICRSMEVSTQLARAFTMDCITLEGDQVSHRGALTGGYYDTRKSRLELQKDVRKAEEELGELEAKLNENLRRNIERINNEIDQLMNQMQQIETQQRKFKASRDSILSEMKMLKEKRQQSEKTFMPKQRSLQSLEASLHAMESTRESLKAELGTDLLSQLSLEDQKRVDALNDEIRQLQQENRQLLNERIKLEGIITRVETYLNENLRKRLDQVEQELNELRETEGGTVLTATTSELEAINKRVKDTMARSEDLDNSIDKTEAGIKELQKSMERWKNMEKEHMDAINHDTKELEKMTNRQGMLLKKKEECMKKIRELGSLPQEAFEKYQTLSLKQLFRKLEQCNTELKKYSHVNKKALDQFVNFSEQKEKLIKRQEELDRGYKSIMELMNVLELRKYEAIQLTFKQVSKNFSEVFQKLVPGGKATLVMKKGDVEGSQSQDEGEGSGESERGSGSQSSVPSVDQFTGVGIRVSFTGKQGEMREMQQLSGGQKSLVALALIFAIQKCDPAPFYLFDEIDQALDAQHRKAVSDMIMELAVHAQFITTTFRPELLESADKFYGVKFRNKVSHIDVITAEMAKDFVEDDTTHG

Assay [1] concerns the target T1, Satb1 (Special AT-rich Binding Protein 1) (mouse (endogenous in thymocytes)) (UniProt Q60611).
T1 sequence: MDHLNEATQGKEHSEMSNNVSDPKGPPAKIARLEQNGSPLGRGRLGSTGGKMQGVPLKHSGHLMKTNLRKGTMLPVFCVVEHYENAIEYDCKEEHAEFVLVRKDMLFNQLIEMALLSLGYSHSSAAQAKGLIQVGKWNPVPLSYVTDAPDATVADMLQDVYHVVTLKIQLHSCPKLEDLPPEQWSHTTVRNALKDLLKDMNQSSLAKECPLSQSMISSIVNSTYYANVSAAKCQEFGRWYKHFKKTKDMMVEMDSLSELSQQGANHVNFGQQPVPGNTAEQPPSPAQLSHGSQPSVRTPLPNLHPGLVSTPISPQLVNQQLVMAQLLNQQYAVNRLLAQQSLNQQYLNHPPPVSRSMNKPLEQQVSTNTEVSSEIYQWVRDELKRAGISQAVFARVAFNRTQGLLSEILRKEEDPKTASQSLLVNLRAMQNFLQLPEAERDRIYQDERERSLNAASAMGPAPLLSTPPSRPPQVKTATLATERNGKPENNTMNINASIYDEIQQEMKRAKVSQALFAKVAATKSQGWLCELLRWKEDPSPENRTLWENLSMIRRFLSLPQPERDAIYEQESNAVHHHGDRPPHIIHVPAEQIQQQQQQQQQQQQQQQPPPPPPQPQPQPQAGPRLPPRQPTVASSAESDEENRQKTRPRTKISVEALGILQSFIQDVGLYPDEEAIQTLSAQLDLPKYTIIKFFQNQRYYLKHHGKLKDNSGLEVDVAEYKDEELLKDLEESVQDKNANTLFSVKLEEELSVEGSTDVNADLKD
Kind of assay: co-IP.

The target in assay [2] is T1, Satb1 (Special AT-rich Binding Protein 1) (mouse (endogenous in thymocytes)). The experiment in a line: proximity ligation.
Assay [3] deals with T2, Smc1a (cohesin subunit) (mouse (endogenous in thymocytes)) (UniProt Q9CU62).
T2 sequence: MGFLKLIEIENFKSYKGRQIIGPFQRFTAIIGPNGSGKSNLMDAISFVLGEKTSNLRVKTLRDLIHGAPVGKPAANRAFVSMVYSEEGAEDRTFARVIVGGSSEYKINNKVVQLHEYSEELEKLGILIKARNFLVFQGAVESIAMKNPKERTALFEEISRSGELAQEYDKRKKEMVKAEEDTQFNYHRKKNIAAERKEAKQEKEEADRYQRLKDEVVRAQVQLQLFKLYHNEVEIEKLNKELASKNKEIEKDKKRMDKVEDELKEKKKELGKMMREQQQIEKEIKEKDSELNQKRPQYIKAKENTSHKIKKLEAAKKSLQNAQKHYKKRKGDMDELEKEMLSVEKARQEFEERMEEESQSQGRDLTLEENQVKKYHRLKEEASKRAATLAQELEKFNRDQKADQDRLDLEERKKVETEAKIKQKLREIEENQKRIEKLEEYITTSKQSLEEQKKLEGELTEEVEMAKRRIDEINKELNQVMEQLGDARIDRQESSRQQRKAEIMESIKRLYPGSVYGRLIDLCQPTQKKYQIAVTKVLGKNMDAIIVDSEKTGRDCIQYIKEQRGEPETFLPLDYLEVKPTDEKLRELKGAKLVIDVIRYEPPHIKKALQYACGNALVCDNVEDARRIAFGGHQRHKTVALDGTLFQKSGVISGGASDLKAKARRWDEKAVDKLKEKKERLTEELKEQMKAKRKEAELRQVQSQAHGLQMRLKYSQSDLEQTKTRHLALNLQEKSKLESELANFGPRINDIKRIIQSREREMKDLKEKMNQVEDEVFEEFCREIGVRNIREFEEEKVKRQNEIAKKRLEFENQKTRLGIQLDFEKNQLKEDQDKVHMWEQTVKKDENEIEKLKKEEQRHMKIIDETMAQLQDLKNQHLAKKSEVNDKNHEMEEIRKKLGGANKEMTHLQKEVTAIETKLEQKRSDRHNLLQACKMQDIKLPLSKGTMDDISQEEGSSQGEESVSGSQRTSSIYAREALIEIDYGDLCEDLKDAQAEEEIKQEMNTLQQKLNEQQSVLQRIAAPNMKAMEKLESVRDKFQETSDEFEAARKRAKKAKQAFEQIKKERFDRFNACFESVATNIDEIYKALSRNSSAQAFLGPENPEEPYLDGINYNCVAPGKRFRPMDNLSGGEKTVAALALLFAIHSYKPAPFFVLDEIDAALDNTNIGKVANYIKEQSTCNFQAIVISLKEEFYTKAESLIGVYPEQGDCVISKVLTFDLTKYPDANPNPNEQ
Kind of assay: co-IP.

The target in assay [4] is T3, Satb1 (Special AT-rich Binding Protein 1) (mouse (endogenous in thymocytes)), Q60611.
T3 chain: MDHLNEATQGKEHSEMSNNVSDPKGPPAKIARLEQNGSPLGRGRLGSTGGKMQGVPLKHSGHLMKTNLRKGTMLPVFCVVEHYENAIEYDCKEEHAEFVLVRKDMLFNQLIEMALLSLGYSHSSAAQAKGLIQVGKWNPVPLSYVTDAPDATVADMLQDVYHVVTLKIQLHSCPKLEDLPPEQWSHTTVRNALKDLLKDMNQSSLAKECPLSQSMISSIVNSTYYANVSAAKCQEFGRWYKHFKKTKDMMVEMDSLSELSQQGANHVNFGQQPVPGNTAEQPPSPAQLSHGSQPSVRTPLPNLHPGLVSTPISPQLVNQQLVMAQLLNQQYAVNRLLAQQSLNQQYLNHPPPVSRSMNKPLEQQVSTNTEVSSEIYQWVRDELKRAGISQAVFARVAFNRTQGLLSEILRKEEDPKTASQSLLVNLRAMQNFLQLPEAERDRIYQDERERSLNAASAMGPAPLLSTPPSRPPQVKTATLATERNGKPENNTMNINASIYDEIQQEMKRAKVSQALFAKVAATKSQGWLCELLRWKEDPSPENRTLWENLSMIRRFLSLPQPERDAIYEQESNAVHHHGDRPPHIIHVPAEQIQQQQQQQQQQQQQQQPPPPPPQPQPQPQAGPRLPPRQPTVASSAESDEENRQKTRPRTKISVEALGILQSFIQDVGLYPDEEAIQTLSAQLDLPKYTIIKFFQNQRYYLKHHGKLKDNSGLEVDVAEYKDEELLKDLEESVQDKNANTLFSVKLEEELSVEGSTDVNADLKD
The experiment in a line: co-IP. Conditions: remark: other sources report otherwise.

Turning to “Smc3 (core subunit of the cohesin complex) (from UniProt Q9CW03 1-1217)”, the binding result in assay [1] is “binds”.

B1: Smc1a (cohesin subunit) (protein, UniProt Q9CU62 1-1233)
chain: MGFLKLIEIENFKSYKGRQIIGPFQRFTAIIGPNGSGKSNLMDAISFVLGEKTSNLRVKTLRDLIHGAPVGKPAANRAFVSMVYSEEGAEDRTFARVIVGGSSEYKINNKVVQLHEYSEELEKLGILIKARNFLVFQGAVESIAMKNPKERTALFEEISRSGELAQEYDKRKKEMVKAEEDTQFNYHRKKNIAAERKEAKQEKEEADRYQRLKDEVVRAQVQLQLFKLYHNEVEIEKLNKELASKNKEIEKDKKRMDKVEDELKEKKKELGKMMREQQQIEKEIKEKDSELNQKRPQYIKAKENTSHKIKKLEAAKKSLQNAQKHYKKRKGDMDELEKEMLSVEKARQEFEERMEEESQSQGRDLTLEENQVKKYHRLKEEASKRAATLAQELEKFNRDQKADQDRLDLEERKKVETEAKIKQKLREIEENQKRIEKLEEYITTSKQSLEEQKKLEGELTEEVEMAKRRIDEINKELNQVMEQLGDARIDRQESSRQQRKAEIMESIKRLYPGSVYGRLIDLCQPTQKKYQIAVTKVLGKNMDAIIVDSEKTGRDCIQYIKEQRGEPETFLPLDYLEVKPTDEKLRELKGAKLVIDVIRYEPPHIKKALQYACGNALVCDNVEDARRIAFGGHQRHKTVALDGTLFQKSGVISGGASDLKAKARRWDEKAVDKLKEKKERLTEELKEQMKAKRKEAELRQVQSQAHGLQMRLKYSQSDLEQTKTRHLALNLQEKSKLESELANFGPRINDIKRIIQSREREMKDLKEKMNQVEDEVFEEFCREIGVRNIREFEEEKVKRQNEIAKKRLEFENQKTRLGIQLDFEKNQLKEDQDKVHMWEQTVKKDENEIEKLKKEEQRHMKIIDETMAQLQDLKNQHLAKKSEVNDKNHEMEEIRKKLGGANKEMTHLQKEVTAIETKLEQKRSDRHNLLQACKMQDIKLPLSKGTMDDISQEEGSSQGEESVSGSQRTSSIYAREALIEIDYGDLCEDLKDAQAEEEIKQEMNTLQQKLNEQQSVLQRIAAPNMKAMEKLESVRDKFQETSDEFEAARKRAKKAKQAFEQIKKERFDRFNACFESVATNIDEIYKALSRNSSAQAFLGPENPEEPYLDGINYNCVAPGKRFRPMDNLSGGEKTVAALALLFAIHSYKPAPFFVLDEIDAALDNTNIGKVANYIKEQSTCNFQAIVISLKEEFYTKAESLIGVYPEQGDCVISKVLTFDLTKYPDANPNPNEQ
Regarding B1, the binding entry in assay [1] and in assay [2] was “binds” in each case.

B2: Satb1 (Special AT-rich Binding Protein 1) (protein, UniProt Q60611 1-764)
chain: MDHLNEATQGKEHSEMSNNVSDPKGPPAKIARLEQNGSPLGRGRLGSTGGKMQGVPLKHSGHLMKTNLRKGTMLPVFCVVEHYENAIEYDCKEEHAEFVLVRKDMLFNQLIEMALLSLGYSHSSAAQAKGLIQVGKWNPVPLSYVTDAPDATVADMLQDVYHVVTLKIQLHSCPKLEDLPPEQWSHTTVRNALKDLLKDMNQSSLAKECPLSQSMISSIVNSTYYANVSAAKCQEFGRWYKHFKKTKDMMVEMDSLSELSQQGANHVNFGQQPVPGNTAEQPPSPAQLSHGSQPSVRTPLPNLHPGLVSTPISPQLVNQQLVMAQLLNQQYAVNRLLAQQSLNQQYLNHPPPVSRSMNKPLEQQVSTNTEVSSEIYQWVRDELKRAGISQAVFARVAFNRTQGLLSEILRKEEDPKTASQSLLVNLRAMQNFLQLPEAERDRIYQDERERSLNAASAMGPAPLLSTPPSRPPQVKTATLATERNGKPENNTMNINASIYDEIQQEMKRAKVSQALFAKVAATKSQGWLCELLRWKEDPSPENRTLWENLSMIRRFLSLPQPERDAIYEQESNAVHHHGDRPPHIIHVPAEQIQQQQQQQQQQQQQQQPPPPPPQPQPQPQAGPRLPPRQPTVASSAESDEENRQKTRPRTKISVEALGILQSFIQDVGLYPDEEAIQTLSAQLDLPKYTIIKFFQNQRYYLKHHGKLKDNSGLEVDVAEYKDEELLKDLEESVQDKNANTLFSVKLEEELSVEGSTDVNADLKD
Regarding B2, the binding result in assay [3] was “binds”.

B3: Ctcf (CCCTC-binding factor), Q61164 1-736 (protein)
chain: MEGEAVEAIVEESETFIKGKERKTYQRRREGGQEEDACHLPQNQTDGGEVVQDVNSSVQMVMMEQLDPTLLQMKTEVMEGTVAPEAEAAVDDTQIITLQVVNMEEQPINIGELQLVQVPVPVTVPVATTSVEELQGAYENEVSKEGLAESEPMICHTLPLPEGFQVVKVGANGEVETLEQGELPPQEDSSWQKDPDYQPPAKKTKKTKKSKLRYTEEGKDVDVSVYDFEEEQQEGLLSEVNAEKVVGNMKPPKPTKIKKKGVKKTFQCELCSYTCPRRSNLDRHMKSHTDERPHKCHLCGRAFRTVTLLRNHLNTHTGTRPHKCPDCDMAFVTSGELVRHRRYKHTHEKPFKCSMCDYASVEVSKLKRHIRSHTGERPFQCSLCSYASRDTYKLKRHMRTHSGEKPYECYICHARFTQSGTMKMHILQKHTENVAKFHCPHCDTVIARKSDLGVHLRKQHSYIEQGKKCRYCDAVFHERYALIQHQKSHKNEKRFKCDQCDYACRQERHMIMHKRTHTGEKPYACSHCDKTFRQKQLLDMHFKRYHDPNFVPAAFVCSKCGKTFTRRNTMARHADNCAGPDGVEGENGGETKKSKRGRKRKMRSKKEDSSDSEENAEPDLDDNEEEEEPAVEIEPEPEPQPQPPPPPQPVAPAPPPAKKRRGRPPGRTNQPKQNQPTAIIQVEDQNTGAIENIIVEVKKEPDAEPAEGEEEEAQAATTDAPNGDLTPEMILSMMDR
As for B3, the binding result in assay [4] is “no binding”.
